Source: the supplement of paper PMC7666118
The other results are listed elsewhere or left out.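 How the source made its calls: active = dose-dependent thermal stabilisation significant by F-test of dose-response against flat model at 10% FDR; inactive = not significant.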

Amino acid sequences for entries named in this document (tags omitted). A change or cut given only in a name is not applied to a line headed by its entry.
UniProt P19784, whole entry, looked up: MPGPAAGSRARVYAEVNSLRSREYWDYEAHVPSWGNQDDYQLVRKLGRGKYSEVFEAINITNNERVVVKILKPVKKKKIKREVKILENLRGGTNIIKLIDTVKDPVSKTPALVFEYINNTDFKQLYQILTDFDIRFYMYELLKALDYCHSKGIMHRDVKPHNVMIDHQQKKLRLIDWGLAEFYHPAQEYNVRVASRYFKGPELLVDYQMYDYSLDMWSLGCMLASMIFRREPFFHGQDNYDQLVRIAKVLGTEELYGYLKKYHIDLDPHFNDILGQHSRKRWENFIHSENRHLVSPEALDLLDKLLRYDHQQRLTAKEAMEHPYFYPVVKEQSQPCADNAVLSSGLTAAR
UniProt Q96FN9: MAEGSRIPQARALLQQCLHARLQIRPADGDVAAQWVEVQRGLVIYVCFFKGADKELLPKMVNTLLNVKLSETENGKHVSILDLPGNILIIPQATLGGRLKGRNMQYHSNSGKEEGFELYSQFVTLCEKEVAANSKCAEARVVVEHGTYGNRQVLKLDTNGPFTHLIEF
UniProt Q92466: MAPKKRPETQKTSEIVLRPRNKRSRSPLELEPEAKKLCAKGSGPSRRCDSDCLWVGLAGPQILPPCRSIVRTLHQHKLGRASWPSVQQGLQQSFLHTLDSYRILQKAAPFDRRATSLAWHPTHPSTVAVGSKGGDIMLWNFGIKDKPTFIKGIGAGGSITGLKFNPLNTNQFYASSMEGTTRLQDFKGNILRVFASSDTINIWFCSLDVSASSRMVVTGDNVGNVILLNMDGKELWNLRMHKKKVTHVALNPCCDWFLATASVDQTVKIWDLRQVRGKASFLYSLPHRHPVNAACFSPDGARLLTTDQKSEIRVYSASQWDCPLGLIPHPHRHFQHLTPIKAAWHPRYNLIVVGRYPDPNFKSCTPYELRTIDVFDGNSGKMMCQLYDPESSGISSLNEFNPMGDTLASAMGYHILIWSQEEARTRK
UniProt Q13619, whole entry: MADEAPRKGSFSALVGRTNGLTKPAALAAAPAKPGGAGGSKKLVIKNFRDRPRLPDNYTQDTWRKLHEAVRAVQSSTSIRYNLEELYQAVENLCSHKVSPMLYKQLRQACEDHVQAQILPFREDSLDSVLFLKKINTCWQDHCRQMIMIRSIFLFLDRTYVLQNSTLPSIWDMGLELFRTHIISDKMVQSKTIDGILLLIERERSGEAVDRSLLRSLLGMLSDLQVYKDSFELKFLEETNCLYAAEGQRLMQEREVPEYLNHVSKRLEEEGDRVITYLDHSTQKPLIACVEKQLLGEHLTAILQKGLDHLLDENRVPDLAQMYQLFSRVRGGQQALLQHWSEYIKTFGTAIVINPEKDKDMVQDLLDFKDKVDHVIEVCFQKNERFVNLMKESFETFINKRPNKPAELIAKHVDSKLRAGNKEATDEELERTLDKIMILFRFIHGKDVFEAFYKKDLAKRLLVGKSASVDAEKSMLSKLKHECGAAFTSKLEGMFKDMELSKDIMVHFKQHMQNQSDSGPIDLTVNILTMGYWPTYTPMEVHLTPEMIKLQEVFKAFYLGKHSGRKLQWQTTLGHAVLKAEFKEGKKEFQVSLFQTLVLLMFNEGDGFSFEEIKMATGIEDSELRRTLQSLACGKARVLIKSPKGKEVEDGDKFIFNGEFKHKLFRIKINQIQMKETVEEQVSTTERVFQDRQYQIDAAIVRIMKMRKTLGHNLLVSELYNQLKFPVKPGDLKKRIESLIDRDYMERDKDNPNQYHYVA
UniProt Q9BTC0, whole entry: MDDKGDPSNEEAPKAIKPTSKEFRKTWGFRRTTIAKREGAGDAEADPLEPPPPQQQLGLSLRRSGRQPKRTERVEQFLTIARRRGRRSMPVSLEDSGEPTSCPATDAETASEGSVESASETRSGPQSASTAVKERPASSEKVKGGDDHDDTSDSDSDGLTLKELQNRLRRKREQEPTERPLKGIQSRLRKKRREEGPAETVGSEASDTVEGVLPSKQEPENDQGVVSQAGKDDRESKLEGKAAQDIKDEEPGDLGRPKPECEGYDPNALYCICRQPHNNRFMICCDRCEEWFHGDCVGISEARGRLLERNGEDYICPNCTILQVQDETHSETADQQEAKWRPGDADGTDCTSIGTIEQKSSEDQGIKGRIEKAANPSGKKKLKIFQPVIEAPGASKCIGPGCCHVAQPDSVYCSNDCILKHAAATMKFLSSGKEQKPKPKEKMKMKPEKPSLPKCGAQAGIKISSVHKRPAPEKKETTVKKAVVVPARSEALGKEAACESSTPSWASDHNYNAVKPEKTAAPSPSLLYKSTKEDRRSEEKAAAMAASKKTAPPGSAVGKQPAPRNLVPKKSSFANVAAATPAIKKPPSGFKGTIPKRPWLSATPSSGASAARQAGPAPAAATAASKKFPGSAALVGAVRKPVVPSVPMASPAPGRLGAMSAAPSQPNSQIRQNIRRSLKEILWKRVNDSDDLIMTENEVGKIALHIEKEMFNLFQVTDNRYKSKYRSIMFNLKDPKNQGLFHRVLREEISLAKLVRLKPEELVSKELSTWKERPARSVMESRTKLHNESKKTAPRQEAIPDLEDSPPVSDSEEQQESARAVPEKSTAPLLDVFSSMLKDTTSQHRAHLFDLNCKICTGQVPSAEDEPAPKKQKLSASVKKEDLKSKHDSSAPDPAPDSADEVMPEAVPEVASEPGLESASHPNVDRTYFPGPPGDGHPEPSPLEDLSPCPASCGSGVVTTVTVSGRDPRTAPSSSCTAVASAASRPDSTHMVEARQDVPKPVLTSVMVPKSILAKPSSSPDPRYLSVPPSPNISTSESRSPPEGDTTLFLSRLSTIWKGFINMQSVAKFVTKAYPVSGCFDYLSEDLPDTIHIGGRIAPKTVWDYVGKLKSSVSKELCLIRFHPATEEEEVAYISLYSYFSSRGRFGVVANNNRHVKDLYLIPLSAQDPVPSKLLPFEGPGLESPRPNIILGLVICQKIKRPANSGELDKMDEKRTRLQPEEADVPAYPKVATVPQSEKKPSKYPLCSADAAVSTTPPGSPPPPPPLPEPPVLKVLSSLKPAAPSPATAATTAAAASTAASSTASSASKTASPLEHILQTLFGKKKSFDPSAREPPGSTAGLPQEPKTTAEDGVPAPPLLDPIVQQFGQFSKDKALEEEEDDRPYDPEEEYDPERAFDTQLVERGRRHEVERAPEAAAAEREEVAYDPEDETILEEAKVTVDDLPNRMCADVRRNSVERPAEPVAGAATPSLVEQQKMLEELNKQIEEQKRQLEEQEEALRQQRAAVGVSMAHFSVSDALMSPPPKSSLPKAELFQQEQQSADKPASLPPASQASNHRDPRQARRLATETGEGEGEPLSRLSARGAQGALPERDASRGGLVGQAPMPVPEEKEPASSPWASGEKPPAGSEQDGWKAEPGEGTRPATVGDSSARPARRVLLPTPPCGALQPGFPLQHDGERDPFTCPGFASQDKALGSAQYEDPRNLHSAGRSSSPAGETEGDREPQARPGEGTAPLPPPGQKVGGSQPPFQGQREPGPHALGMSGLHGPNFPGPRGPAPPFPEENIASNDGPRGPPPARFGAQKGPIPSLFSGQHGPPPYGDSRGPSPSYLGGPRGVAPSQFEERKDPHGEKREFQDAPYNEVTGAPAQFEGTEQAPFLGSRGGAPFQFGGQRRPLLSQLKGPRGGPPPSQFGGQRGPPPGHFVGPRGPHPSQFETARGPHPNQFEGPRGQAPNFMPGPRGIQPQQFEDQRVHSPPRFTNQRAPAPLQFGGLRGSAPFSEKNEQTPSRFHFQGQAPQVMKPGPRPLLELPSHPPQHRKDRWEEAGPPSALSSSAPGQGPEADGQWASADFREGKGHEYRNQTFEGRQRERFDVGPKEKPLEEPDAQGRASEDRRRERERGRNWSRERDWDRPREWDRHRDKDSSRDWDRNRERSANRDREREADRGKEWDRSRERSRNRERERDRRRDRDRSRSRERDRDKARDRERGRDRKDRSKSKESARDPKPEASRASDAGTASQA
UniProt O75398: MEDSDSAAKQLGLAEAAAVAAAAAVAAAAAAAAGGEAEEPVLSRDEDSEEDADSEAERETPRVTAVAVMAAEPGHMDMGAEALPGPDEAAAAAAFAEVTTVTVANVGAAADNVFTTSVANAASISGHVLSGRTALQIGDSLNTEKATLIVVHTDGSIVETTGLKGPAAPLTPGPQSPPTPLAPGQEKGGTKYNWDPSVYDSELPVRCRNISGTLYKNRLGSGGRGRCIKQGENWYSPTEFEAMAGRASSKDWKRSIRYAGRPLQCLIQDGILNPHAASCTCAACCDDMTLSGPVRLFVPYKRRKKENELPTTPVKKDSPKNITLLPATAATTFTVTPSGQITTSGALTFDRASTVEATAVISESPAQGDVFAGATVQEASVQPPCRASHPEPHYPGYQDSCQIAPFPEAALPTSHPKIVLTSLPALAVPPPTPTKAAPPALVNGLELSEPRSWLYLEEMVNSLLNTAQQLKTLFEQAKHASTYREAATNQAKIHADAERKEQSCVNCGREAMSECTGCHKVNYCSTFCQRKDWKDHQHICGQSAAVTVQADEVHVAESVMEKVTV
UniProt O43143: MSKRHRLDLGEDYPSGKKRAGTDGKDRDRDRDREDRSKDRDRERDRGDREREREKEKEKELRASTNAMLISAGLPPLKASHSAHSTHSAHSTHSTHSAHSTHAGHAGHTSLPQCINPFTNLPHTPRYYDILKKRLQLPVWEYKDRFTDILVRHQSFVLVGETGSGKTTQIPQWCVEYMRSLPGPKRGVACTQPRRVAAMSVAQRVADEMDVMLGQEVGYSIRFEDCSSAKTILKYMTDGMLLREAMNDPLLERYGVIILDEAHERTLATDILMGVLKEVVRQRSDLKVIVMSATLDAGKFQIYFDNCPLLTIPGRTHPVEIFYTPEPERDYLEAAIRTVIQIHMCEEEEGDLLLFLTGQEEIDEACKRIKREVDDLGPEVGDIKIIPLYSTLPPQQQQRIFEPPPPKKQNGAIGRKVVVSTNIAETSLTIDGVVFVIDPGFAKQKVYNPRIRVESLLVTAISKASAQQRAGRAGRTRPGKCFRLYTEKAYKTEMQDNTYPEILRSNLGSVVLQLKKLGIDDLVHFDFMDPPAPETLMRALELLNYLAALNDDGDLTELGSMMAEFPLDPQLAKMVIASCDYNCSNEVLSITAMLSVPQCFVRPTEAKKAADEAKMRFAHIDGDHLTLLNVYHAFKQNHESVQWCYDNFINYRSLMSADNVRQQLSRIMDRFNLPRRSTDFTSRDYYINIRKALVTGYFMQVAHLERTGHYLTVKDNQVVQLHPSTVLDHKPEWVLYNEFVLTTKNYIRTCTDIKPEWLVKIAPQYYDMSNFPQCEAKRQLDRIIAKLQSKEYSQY
UniProt Q13838, whole entry: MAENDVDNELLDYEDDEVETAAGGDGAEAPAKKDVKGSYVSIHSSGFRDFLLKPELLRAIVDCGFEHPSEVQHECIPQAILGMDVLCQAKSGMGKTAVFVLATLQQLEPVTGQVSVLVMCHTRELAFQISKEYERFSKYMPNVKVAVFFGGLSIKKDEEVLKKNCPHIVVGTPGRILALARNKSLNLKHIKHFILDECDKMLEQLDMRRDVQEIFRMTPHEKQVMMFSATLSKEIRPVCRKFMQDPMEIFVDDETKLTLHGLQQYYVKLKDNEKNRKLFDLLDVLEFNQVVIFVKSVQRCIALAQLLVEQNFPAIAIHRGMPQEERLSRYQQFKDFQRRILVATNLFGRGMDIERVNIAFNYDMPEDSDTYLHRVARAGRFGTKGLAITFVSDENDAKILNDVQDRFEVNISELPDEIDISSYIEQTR
UniProt Q6UX04: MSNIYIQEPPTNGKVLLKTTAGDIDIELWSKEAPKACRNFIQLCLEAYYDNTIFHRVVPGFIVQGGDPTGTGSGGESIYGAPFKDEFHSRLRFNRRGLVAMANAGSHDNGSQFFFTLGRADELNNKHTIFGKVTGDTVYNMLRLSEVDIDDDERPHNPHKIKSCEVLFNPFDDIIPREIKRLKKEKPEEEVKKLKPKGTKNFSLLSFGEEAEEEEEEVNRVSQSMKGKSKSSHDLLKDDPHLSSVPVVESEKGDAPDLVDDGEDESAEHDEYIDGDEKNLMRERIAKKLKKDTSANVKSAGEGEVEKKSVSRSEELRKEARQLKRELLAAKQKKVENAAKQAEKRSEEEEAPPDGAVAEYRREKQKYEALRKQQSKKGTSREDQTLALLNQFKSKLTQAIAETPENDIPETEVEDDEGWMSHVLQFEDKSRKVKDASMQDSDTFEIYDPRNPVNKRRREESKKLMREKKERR
UniProt Q7Z7A3: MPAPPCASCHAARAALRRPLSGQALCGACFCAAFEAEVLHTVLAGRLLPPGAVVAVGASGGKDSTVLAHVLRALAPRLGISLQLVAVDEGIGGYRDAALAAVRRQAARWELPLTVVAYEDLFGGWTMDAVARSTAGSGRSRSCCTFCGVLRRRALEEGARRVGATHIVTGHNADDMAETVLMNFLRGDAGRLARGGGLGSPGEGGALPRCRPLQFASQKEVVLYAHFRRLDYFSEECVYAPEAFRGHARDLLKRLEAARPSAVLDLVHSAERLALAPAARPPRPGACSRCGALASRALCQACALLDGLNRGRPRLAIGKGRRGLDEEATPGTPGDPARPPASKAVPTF

Compound: Nc1nc2c(ncn2[C@@H]2O[C@H](COP(=O)(O)OP(=O)(O)OP(=O)(O)O)[C@@H](O)[C@H]2O)c(=O)[nH]1
Test: dose-dependent thermal stabilisation call (2D-TPP, DLPTP, 10% FDR) (binary (1 = stabilised)); higher = stabilised by the compound
Conditions: system: Jurkat gel-filtered lysate; concentration range 1-500 µM
Procedure: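 2D thermal proteome profiling in gel-filtered Jurkat E6.1 lysate (2 mg/ml) treated with NaGTP (0, 1, 10, 100, 500 uM) for 10 min at room temperature, then heated 3 min at one of 12 temperatures (42-63.9 C). Soluble protein was quantified by TMT10 MS. The value is the DLPTP call of the paper: dose-dependent thermal stabilisation over all temperatures at 10% FDR (F-test of a dose-response against a flat model); one experiment, one call per tested protein.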

| Target | dose-dependent thermal stabilisation call |
| --- | --- |
| DYNC1LI1 (UniProt Q9Y6G9) | active: 1 |
| EEF1AKMT2 (UniProt Q5JPI9) | inactive: 0 |
| CWF19L1 (UniProt Q69YN2) | inactive: 0 |
| DYNC1LI2 (UniProt O43237) | active: 1 |
| CSNK2A2 (UniProt P19784) | active: 1 |
| CRK (UniProt P46108) | inactive: 0 |
| CTCF (UniProt P49711) | inactive: 0 |
| DTD2 (UniProt Q96FN9) | inactive: 0 |
| DLG4 (UniProt P78352) | inactive: 0 |
| DDB2 (UniProt Q92466) | inactive: 0 |
| DDB1 (UniProt Q16531) | inactive: 0 |
| CUL4A (UniProt Q13619) | inactive: 0 |
| CWC22 (UniProt Q9HCG8) | inactive: 0 |
| DPH2 (UniProt Q9BQC3) | active: 1 |
| EDF1 (UniProt O60869) | inactive: 0 |
| DIDO1 (UniProt Q9BTC0) | inactive: 0 |
| EEF1AKMT1 (UniProt Q8WVE0) | inactive: 0 |
| DEAF1 (UniProt O75398) | inactive: 0 |
| DHX15 (UniProt O43143) | active: 1 |
| DNAJC2 (UniProt Q99543) | active: 1 |

Nothing new here: entries from further up.

| Target | dose-dependent thermal stabilisation call |
| --- | --- |
| DYNC1LI1 (UniProt Q9Y6G9) | active: 1 |
| EEF1AKMT2 (UniProt Q5JPI9) | inactive: 0 |
| CWF19L1 (UniProt Q69YN2) | inactive: 0 |

(continued)

| Target | dose-dependent thermal stabilisation call |
| --- | --- |
| DNPEP (UniProt Q9ULA0) | inactive: 0 |
| DOCK11 (UniProt Q5JSL3) | inactive: 0 |
| CRIP2 (UniProt P52943) | inactive: 0 |
| CTBP1 (UniProt Q13363) | inactive: 0 |
| DNAJB11 (UniProt Q9UBS4) | inactive: 0 |
| CTSB (UniProt P07858) | inactive: 0 |
| DDX39B (UniProt Q13838) | inactive: 0 |
| CTBS (UniProt Q01459) | inactive: 0 |
| CWC27 (UniProt Q6UX04) | inactive: 0 |
| EED (UniProt O75530) | inactive: 0 |
| DHRS11 (UniProt Q6UWP2) | inactive: 0 |
| DSG2 (UniProt Q14126) | inactive: 0 |
| DCPS (UniProt Q96C86) | inactive: 0 |
| DDX21 (UniProt Q9NR30) | active: 1 |
| CTU1 (UniProt Q7Z7A3) | inactive: 0 |
| DPH6 (UniProt Q7L8W6) | inactive: 0 |
| CUX1 (UniProt P39880) | inactive: 0 |
| DOCK10 (UniProt Q96BY6) | inactive: 0 |
| DNAJA1 (UniProt P31689) | inactive: 0 |
| EEF1A1 (UniProt P68104) | active: 1 |
